From publication PMC4223564
No constants are given. Whether binding was seen depends on the method and setting. Binding seen in cells or lysates may run through a third protein. Binding can be weak; no strength is given.

Protein sequences, listed by entry. Tags and fused reporters are not part of them. Lines headed by an entry give the natural chain unless they say otherwise; changes in a name come on top.
UniProt Q13404: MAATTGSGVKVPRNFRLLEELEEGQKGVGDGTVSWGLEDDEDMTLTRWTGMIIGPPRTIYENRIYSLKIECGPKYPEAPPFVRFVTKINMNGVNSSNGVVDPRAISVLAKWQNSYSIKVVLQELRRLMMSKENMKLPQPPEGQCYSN
UniProt P61088: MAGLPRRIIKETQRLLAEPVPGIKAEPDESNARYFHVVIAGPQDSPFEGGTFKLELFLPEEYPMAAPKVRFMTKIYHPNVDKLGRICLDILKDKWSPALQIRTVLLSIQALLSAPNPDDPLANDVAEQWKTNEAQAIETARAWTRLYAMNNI

Biological target: Uev1A (ubiquitin-conjugating enzyme variant 1A), HA-tagged (human) (UniProt Q13404)
Experiment: co-IP; MDA-MB-231 cell extracts expressing HA-tagged UEV1A or UEV1A-F38E, immunoprecipitated with an anti-HA monoclonal antibody and Protein-G beads, 4°C overnight, washed 4 times with cold NP40 lysis buffer; western blot with anti-Ubc13 and anti-HA monoclonal antibodies

binding: binds
Substance: Ubc13 (from UniProt P61088 1-152) (enzyme)
